From article doi:10.1101/2021.05.03.442391 come the findings set out here.

Amino acid sequences for entries named in this document (tags omitted).
UniProt Q8CG47: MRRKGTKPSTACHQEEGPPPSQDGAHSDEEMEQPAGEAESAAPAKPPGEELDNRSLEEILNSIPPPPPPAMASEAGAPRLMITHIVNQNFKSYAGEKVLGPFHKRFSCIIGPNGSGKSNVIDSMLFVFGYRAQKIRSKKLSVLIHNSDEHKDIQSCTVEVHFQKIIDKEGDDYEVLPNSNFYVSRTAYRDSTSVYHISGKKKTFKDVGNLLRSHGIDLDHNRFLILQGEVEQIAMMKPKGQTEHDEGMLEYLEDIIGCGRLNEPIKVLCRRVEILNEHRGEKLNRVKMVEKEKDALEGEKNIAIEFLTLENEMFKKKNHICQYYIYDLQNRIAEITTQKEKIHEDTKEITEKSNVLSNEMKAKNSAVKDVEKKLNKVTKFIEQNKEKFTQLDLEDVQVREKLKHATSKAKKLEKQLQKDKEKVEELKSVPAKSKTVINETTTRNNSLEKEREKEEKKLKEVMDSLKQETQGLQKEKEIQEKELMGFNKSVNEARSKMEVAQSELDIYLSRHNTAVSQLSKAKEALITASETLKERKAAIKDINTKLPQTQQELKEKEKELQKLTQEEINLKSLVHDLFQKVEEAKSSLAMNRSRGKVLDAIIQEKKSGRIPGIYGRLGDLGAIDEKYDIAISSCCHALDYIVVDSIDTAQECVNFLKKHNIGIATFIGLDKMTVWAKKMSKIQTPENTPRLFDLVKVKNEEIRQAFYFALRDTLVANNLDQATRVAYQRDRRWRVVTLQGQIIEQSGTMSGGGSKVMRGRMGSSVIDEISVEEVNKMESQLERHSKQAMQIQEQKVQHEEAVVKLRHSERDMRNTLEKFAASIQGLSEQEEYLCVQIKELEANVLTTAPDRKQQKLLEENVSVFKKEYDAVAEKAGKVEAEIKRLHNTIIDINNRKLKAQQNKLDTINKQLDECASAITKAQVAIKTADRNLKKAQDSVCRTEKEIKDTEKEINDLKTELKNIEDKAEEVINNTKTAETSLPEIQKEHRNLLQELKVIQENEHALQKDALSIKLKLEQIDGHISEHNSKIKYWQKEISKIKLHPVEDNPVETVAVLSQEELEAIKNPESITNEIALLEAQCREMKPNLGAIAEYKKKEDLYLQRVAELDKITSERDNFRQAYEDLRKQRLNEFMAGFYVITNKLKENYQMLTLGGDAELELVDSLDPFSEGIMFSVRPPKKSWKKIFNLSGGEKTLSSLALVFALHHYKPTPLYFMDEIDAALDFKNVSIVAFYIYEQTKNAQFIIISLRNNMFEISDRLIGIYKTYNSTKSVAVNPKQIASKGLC

This assay addresses T1, retinoblastoma-associated protein (RB) (mouse (endogenous in J1 ESCs)) (UniProt P13405).
T1 sequence: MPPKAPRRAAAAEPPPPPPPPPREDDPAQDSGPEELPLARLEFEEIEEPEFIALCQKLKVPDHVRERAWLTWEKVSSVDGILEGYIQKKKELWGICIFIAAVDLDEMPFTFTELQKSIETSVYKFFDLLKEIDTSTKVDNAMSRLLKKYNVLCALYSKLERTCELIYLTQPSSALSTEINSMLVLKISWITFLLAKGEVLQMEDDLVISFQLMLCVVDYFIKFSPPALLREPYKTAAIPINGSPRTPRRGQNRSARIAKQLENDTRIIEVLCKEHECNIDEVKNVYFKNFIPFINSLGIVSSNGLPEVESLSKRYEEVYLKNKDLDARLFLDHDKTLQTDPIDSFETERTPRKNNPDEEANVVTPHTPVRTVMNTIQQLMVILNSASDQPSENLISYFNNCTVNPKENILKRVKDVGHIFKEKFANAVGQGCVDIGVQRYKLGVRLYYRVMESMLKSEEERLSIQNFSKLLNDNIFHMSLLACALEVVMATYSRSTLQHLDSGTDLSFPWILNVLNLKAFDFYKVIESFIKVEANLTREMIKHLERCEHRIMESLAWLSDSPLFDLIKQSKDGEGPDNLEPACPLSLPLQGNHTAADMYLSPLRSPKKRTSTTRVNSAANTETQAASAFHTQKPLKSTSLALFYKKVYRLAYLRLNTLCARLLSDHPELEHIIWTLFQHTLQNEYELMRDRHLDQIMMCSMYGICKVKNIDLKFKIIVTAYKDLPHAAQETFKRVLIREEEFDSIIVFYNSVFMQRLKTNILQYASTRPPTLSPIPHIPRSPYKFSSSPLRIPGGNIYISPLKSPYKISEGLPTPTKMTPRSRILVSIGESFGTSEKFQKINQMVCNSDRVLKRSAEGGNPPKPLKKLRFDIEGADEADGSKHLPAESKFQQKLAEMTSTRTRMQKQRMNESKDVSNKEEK
The assay is described as follows: co-IP.

No constants are given. Whether binding was seen depends on the method and setting. In cells and extracts the contact can be indirect. Some binding calls cover weakened binding; strength is not graded here.

SMC4 (from UniProt Q8CG47 1-1286): the binding result is recorded as “binds”.
